# From PubChem BioAssay AID2685 (National Center for Advancing Translational Sciences (NCATS), 2010)
# The whole screen tested about 320,000 compounds, of which about 2,100 (0.66%) were called active. The shares of active, inactive and inconclusive entries below differ from those in the screen. The call rests on the fitted dose curve; in most records, active means well fitted inhibition curve with a large enough effect in the signal ratio, with a control signal flat (not every such curve was filed as active); inconclusive means small, poorly fitted or top-dose-only effect, or effect the other way, or a change in a side signal; inactive means flat fitted curve, though single readings scatter; the % refers to the signal ratio. A potency beside an inconclusive call is a rough fit, not a confirmed value.
# Experiment: qHTS Assay for Lipid Storage Modulators in Drosophila S3 Cells
# Conditions: BODIPY lipid droplet fluorescence, 18-24 h, cells fed with added oleic acid; lipid storage change, negative = inhibition: at 46.1 µM (top of the series) unless noted
# Method in brief: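 Laser-scanning cytometry quantifies lipid droplet accumulation (500–530 nm total intensity; droplet/cell object ratio) in oleic acid-fed (400 uM added) Drosophila S3 cells treated with a concentration series. 20 uM Triacsin C defined 100% inhibition.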
# On the % scale 0 is the no-effect control and ±100 the full control effect; potency means the concentration at half of the fitted maximal effect.
SMILES,Potency,"lipid storage change, negative = inhibition"
O=C(O)c1cccc(N2CCCCS2(=O)=O)c1,"inconclusive: 10.3 µM [falling, partial curve, poor fit]",
CC(C)(C)OC(=O)CNC(=O)c1nc[nH]c1C(=O)NCc1ccccc1,,inconclusive: -44.9%
Cc1c(NC(=O)CSc2nnc(C(C)Oc3ccc(Cl)cc3)n2-c2ccccc2)c(=O)n(-c2ccccc2)n1C (stereo unspecified),,inactive
CC1(C(=O)N(CC(=O)NC2CCCC2)Cc2ccco2)CC(=O)N=C2C=CC=CN21 (stereo unspecified),"inconclusive: 4.11 µM [falling, full curve]",
C/C(=N/NC(=O)c1ccc(-c2ccccc2)cc1)c1cc(O)cc(O)c1,,inconclusive: -4.79%
O=C(/C=C/c1ccccc1)Nc1ccc(C(=O)N2CCCCC2)cc1,"inconclusive: 29.1 µM [falling, single point]",
Cc1ccc(C(=O)Nc2nc(C)c(C(=O)Nc3ccc4c(c3)CCC4)s2)cc1,,inconclusive: 18.5%
O=C(Cn1nc(Cc2cccnc2)c2ccccc2c1=O)Nc1ccc2c(c1)OCO2,"inconclusive: 18.4 µM [activator, single point]",
O=C1CN(C(=O)COC(=O)c2cccnc2Cl)c2ccccc2N1,,inconclusive: 24.6%
COc1ccc(CNC(=O)C2CCCN(c3ncnc4c3nc3n4CCCCC3)C2)cc1 (stereo unspecified),,inactive
CC(C)CCOc1ccc(C(=O)C[N+]2(C)CCOCC2)cc1,"inconclusive: 1.84 µM [falling, partial curve]",
O=C(Cn1cnc2ccccc21)Nc1ccc2c(c1)OCCCO2,"inconclusive: 29.1 µM [falling, single point]",
Cn1cc(SCC(=O)N2CCN(c3ccccc3)CC2)c2ccccc21,"inconclusive: 0.92 µM [activator, full curve]",
Cc1ccc(CC(=O)N2CCN(c3cccc(C(F)(F)F)c3)CC2)cc1,,inconclusive: 12.5%
CN1CCCN=C1COC(=O)C(O)(c1ccccc1)C1CCCCC1 (stereo unspecified),,inconclusive: 0.92%
COc1ccc(Cn2c(-c3ccc(C)cc3)nc3c(c(=O)c4ccccc4n3C)c2=O)cc1,,inconclusive: 13%
CCOC(=O)C(Sc1nnc2c3ccccc3n(CC)c2n1)C(=O)OCC,"inconclusive: 1.3 µM [rising, full curve]",
O=C(CCN1CCCCC1)Nc1cccc(Br)c1,,inconclusive: -7.09%
CCN(CC)S(=O)(=O)c1cc(OC)ccc1N=Nc1ccc(O)c2ncccc12,"inconclusive: 29.1 µM [activator, single point]",
CCCCc1ccc(NC(=O)CN2C(=O)C3CCCCC3C2=O)cc1 (stereo unspecified),"inconclusive: 16.4 µM [falling, single point]",
Cc1ccc(S(=O)(=O)N2CCOCC2)cc1NC(=O)CN1CCN(c2ccc(O)cc2)CC1,,inconclusive: 203%
CC(C)(C)C(=O)NCCCNc1ccc([N+](=O)[O-])cc1,,inconclusive: -52.7% [at 0.369 µM]
Cc1c(-c2ccccc2)nc(-c2ccccc2)[nH]c1=O,,inconclusive: 18.6%
COc1ccc(C(=O)/C=C/c2ccc(OC)c(COc3ccccc3F)c2)cc1,"inconclusive: 18.4 µM [falling, single point]",
N#Cc1ccccc1S(=O)(=O)N1CCN(C(=O)Cc2coc3cc(O)ccc23)CC1,"inconclusive: 29.1 µM [activator, single point]",
CC(C)Cc1ccc(CN2CCCC(NC(=O)c3nn(C)c(=O)c4ccccc34)C2)cc1 (stereo unspecified),,inconclusive: 60.4%

# In a second layout: entries from further up
SMILES	Potency	lipid storage change, negative = inhibition
O=C(O)c1cccc(N2CCCCS2(=O)=O)c1	inconclusive: 10.3 µM [falling, partial curve, poor fit]	
CC(C)(C)OC(=O)CNC(=O)c1nc[nH]c1C(=O)NCc1ccccc1		inconclusive: -44.9%
Cc1c(NC(=O)CSc2nnc(C(C)Oc3ccc(Cl)cc3)n2-c2ccccc2)c(=O)n(-c2ccccc2)n1C (stereo unspecified)		inactive
CC1(C(=O)N(CC(=O)NC2CCCC2)Cc2ccco2)CC(=O)N=C2C=CC=CN21 (stereo unspecified)	inconclusive: 4.11 µM [falling, full curve]	
C/C(=N/NC(=O)c1ccc(-c2ccccc2)cc1)c1cc(O)cc(O)c1		inconclusive: -4.79%
O=C(/C=C/c1ccccc1)Nc1ccc(C(=O)N2CCCCC2)cc1	inconclusive: 29.1 µM [falling, single point]	
Cc1ccc(C(=O)Nc2nc(C)c(C(=O)Nc3ccc4c(c3)CCC4)s2)cc1		inconclusive: 18.5%
O=C(Cn1nc(Cc2cccnc2)c2ccccc2c1=O)Nc1ccc2c(c1)OCO2	inconclusive: 18.4 µM [activator, single point]	
O=C1CN(C(=O)COC(=O)c2cccnc2Cl)c2ccccc2N1		inconclusive: 24.6%
COc1ccc(CNC(=O)C2CCCN(c3ncnc4c3nc3n4CCCCC3)C2)cc1 (stereo unspecified)		inactive
CC(C)CCOc1ccc(C(=O)C[N+]2(C)CCOCC2)cc1	inconclusive: 1.84 µM [falling, partial curve]	
O=C(Cn1cnc2ccccc21)Nc1ccc2c(c1)OCCCO2	inconclusive: 29.1 µM [falling, single point]	
Cn1cc(SCC(=O)N2CCN(c3ccccc3)CC2)c2ccccc21	inconclusive: 0.92 µM [activator, full curve]	
Cc1ccc(CC(=O)N2CCN(c3cccc(C(F)(F)F)c3)CC2)cc1		inconclusive: 12.5%
CN1CCCN=C1COC(=O)C(O)(c1ccccc1)C1CCCCC1 (stereo unspecified)		inconclusive: 0.92%
COc1ccc(Cn2c(-c3ccc(C)cc3)nc3c(c(=O)c4ccccc4n3C)c2=O)cc1		inconclusive: 13%
CCOC(=O)C(Sc1nnc2c3ccccc3n(CC)c2n1)C(=O)OCC	inconclusive: 1.3 µM [rising, full curve]	
O=C(CCN1CCCCC1)Nc1cccc(Br)c1		inconclusive: -7.09%
CCN(CC)S(=O)(=O)c1cc(OC)ccc1N=Nc1ccc(O)c2ncccc12	inconclusive: 29.1 µM [activator, single point]	

# (further entries)

SMILES,Potency,"lipid storage change, negative = inhibition"
COc1ccc(Nc2cc(C(=O)NCc3ccco3)c3ccccc3n2)cc1,,inconclusive: 14.1%
CCCn1c(=O)c(-c2ccccc2)c(O)c2ccccc21,,inconclusive: -1.98%
COCCOC(=O)N/C=C\c1nc2ccccc2c(=O)[nH]1,,inconclusive: 15.5%
COC(=O)c1ccc(NC(=O)CCn2cccc2)cc1,,inconclusive: -19.8%
O=C(CCNC(=O)c1ccccc1Cl)Nc1ccc(S(=O)(=O)Nc2ncccn2)cc1,"inconclusive: 6.51 µM [falling, partial curve]",
Fc1ccc(C(c2nnnn2Cc2ccccc2)N2CCSCC2)cc1 (stereo unspecified),,inconclusive: 11.8%
Cc1ccc(C(=O)NCCSC(C)(C)C)cc1[N+](=O)[O-],,inconclusive: 9.1%
COc1ccc(CN(Cc2cccn2C)S(=O)(=O)c2ccccc2)cc1,,inconclusive: 23.4%
CC1c2ccccc2SC(CCCN(C)C)c2ccccc21 (stereo unspecified),,inconclusive: -3.78%
COc1ccc(C(=O)NNC2=C(C(=O)C(F)(F)F)CCC2)cc1,,inconclusive: 12.4%
Cc1ccc(C(=O)NCc2ccc3c(c2)OCO3)cc1N1CCCC1=O,,inconclusive: 11.7% [at 9.22 µM]
COc1cc2c(cc1NC(=O)C(C)Sc1nc3ccccc3n1C)oc1ccccc12 (stereo unspecified),"inconclusive: 29.1 µM [activator, single point]",
O=C([C@@H]1Cc2ccccc2CN1)N1CCN(Cc2ccccc2)CC1,,inconclusive: 6.24%
O=C(CSCc1ccc(Cl)cc1)NN=C1CCCC1,,inconclusive: 19.2%
COC(C[C@@H](O)[C@@H](C)[C@H](O)COCc1ccccc1)OC,,inconclusive: 2.47%
O=C(c1ccc2oc(CCCc3ccccc3)nc2c1)N1CCCC(CCCO)C1 (stereo unspecified),,inconclusive: -1.26%
CC1CCN(C(=O)c2cc3ccccc3o2)CC1,"inconclusive: 18.4 µM [rising, partial curve]",
COCCn1c(N)c(Sc2ccccc2)c(=O)[nH]c1=O,,inconclusive: 45.3%
COc1ccccc1NC(=O)CCC(=O)OCC(=O)c1ccc(C)c([N+](=O)[O-])c1,,inconclusive: 25.4%
CC12CCC(=O)N1C(C(=O)Nc1nnc(SCc3ccc(F)cc3)s1)CS2 (stereo unspecified),"inconclusive: 29.1 µM [falling, single point]",
O=C(CNC(=O)c1nc[nH]c1C(=O)N1CCNCC1)OCc1ccccc1,,inconclusive: 1.04%
COc1ccc(CNCCC(c2ccccc2)c2ccc(OC(C)C)cc2)cc1OC (stereo unspecified),"inconclusive: 29.1 µM [cytotoxic, single point]",
COC(=O)C1=C(C)NC(=O)/C1=C\c1cc(C)n(-c2ccc(F)cc2)c1C,"inconclusive: 0.291 µM [activator, full curve, poor fit]",
C=Cc1ccc(C(=O)N2CCCC(CCC(=O)N3CCN(c4ccccn4)CC3)C2)cc1 (stereo unspecified),,inactive
COC(=O)c1[nH]c2cc(OC)ccc2c1NC(=O)CCN1CCN(Cc2ccc3c(c2)OCO3)CC1,"inconclusive: 4.61 µM [activator, full curve]",
O=c1cc(-c2cccnc2)oc2c1ccc1ccccc12,,inconclusive: -37%

SMILES,Potency,"lipid storage change, negative = inhibition"
COc1ccccc1CNC(=O)C1CCCN(S(=O)(=O)c2cccc3cccnc23)C1 (stereo unspecified),"inconclusive: 5.8 µM [activator, partial curve]",
COc1ccc(OCCSc2nnc(CCNC(=O)c3ccc(OC)cc3)n2C)cc1,,inconclusive: -25.2%
c1csc(-c2nc(CN3CCSCC3)cs2)c1,,inconclusive: 29.5%
CCN(CC)c1ccc(/C=C/c2nc3ccccc3s2)cc1,"inconclusive: 2.06 µM [activator, partial curve, poor fit]",
CCCCOC(=O)c1ccc(NC(=O)C(=O)NCc2ccco2)cc1,"inconclusive: 0.13 µM [falling, full curve, poor fit]",
O=S(=O)(Nc1nccs1)c1ccc(Cl)cc1,,inconclusive: 2.59%
COc1cccc(CN2CC(C(=O)NC3CCCCCC3)CCC2=O)c1 (stereo unspecified),,inconclusive: 40.4%
O=C(COC(=O)c1cc(=O)c2ccccc2o1)Nc1ccc2ccccc2c1,"inconclusive: 4.61 µM [activator, full curve, poor fit]",
CCN(C(=O)CN1CCCc2ccccc21)c1c(N)n(Cc2ccccc2)c(=O)[nH]c1=O,"inconclusive: 1.16 µM [falling, full curve, poor fit]",
CC(C)Cn1c(N)c(C(=O)COC(=O)c2ccc(O)cc2)c(=O)n(C)c1=O,,inconclusive: 30.4%
CC(C)CCNC(=O)CCn1c(=S)oc2ccccc21,,inconclusive: 2.58%
Cn1c(SCc2ccc(Br)cc2)nc2ccccc2c1=O,,inactive
CN(C)CCCNc1oc(-c2cccc(Cl)c2)nc1C#N,active: 23.1 µM,
O=C(O)CCC(=O)Nc1ccc(Br)cn1,,inconclusive: -24.7%
CCOC(=O)CC1C(=O)NCCN1C(=O)c1c(F)cccc1F (stereo unspecified),"inconclusive: 29.1 µM [cytotoxic, single point]",
CC(C)CC(=O)Nc1ccc(C(=O)NN2C(=O)c3ccccc3C2=O)cc1,,inconclusive: -4.08%
COc1ccc(C)cc1NC(=O)c1cnc2scc(C)n2c1=O,"inconclusive: 0.92 µM [rising, full curve]",
COc1ccc2[nH]c(=O)c(CN(C(C)=O)c3ccc(C)c(C)c3)cc2c1,,inconclusive: -5.69%
CCOC(=O)C1CCN(S(=O)(=O)CCNC(=O)c2cccc(OC)c2)CC1,,inconclusive: 29.8%
CCOc1ccccc1NC(=O)CN(c1ccc(OC)cc1OC)S(=O)(=O)c1ccccc1[N+](=O)[O-],,inconclusive: 84.1%
Cc1cc(C)cc(C(=O)N/N=C/c2ccoc2)c1,"inconclusive: 29.1 µM [falling, single point]",
CC(=O)Nc1ccc2c(c1)nc(CCNC(=O)c1ccco1)n2C,,inconclusive: 94.6%
COc1ccccc1/C=C(\C#N)C(=O)Nc1ccc(S(N)(=O)=O)cc1,,inconclusive: -37.7%
COc1ccccc1C(=O)Nc1nnc(SCC(=O)Nc2ccc3c(c2)oc2ccccc23)s1,"inconclusive: 13 µM [falling, partial curve, poor fit]",
